PubChem BioAssay AID540275 (National Center for Advancing Translational Sciences (NCATS), 2011)
In all, about 320,000 compounds went through this assay and about 620 (0.19%) were called active. Inconclusive means that the source gave no clear call. Such entries were picked first, then a sample of the others. No stated cut-off is given here; in the data, active means activation above about 80%; inconclusive means between about 30% and that limit; inactive means weaker than that.

Amino acid sequences for entries named in this document (tags omitted).
UniProt Q8NER1, whole entry, looked up: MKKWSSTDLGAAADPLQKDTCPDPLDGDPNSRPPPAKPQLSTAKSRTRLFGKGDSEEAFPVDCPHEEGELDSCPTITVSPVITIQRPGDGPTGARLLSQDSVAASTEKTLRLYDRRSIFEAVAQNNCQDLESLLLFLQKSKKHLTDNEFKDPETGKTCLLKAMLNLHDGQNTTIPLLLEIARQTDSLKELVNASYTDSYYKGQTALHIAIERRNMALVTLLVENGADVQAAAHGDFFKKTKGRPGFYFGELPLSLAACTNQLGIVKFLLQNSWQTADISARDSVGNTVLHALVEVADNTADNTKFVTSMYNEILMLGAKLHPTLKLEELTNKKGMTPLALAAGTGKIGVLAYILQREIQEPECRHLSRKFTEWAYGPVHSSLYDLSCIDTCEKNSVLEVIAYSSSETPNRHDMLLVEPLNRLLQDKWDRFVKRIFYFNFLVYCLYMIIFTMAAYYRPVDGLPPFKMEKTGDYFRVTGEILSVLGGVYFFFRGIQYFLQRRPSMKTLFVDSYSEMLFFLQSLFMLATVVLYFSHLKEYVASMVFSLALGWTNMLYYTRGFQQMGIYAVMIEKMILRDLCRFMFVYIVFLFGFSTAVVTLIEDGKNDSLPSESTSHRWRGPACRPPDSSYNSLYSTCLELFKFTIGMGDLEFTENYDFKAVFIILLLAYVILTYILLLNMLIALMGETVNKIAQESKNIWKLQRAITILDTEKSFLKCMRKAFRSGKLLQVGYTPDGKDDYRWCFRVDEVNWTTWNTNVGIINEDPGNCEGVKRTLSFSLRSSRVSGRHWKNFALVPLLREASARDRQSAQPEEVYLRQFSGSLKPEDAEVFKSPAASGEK

Biological target: Transient receptor potential cation channel subfamily V member 1 (Homo sapiens) (UniProt Q8NER1)
Assay: HTS Assay for Compounds that Act as Agonists of the Vanilloid Receptor 1; further: 0% is about no effect
Conditions: TRPV1-expressing cells, Fluo-8 calcium influx, agonist mode; at 8.33 µM, active compounds read high
How it was run: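 Cells expressing TRPV1 were dye-loaded with Fluo-8 and read kinetically: 10 s baseline, 3 min after compound (agonist portion), then 2 min after EC20 capsaicin (allosteric enhancer portion). Calcium-bound dye fluorescence at 480/520 nm.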

Compound	activation
Cc1ccc(OCc2nc3ccccc3[nH]2)cc1	inconclusive: 68.9%
Cn1cc(C(=O)Nc2ccc(F)c(Cl)c2)cn1	inconclusive: 45.5%
CCOc1ccc(OCCOCCNCCOC)cc1	inactive: 1.79%
C=CCc1cccc2cc(C(=O)NCc3cccnc3)c(=O)oc12	inconclusive: 43.9%
CCOc1ccccc1C1CC(=O)NC(SCC)=C1C#N (stereo unspecified)	inactive: 5.77%
COc1cc(NC(=O)c2csc(-c3ccncc3)n2)cc(C(=O)Nc2cccc(C(F)(F)F)c2)c1	inactive: 4.15%
COCc1cc(N2CCCC2)nc(-c2ccccc2)n1	inconclusive: 52.6%
COc1ccc(CN(C(=O)CN2C(=O)C(C)Oc3ccccc32)C2CCCC2)c(OC)c1 (stereo unspecified)	inconclusive: 57.9%
Cc1nnc(SCc2ccc(F)cc2)n1NC/C=C/c1ccccc1	inconclusive: 36.6%
Cc1nnc(NC(=O)C23CC4CC(CC(C4)C2)C3)s1	inactive: -2.44%
COc1cccc(CNC(=O)CN2C(=O)CC(c3ccccc3)=Nc3ccccc32)c1	inconclusive: 46.1%
NS(=O)(=O)c1cccc(NC(=O)CCCC2CCCCC2)c1	inconclusive: 71.2%
Cc1ccc(N(CC(=O)N2CCCCC2)S(=O)(=O)c2ccc(C)cc2)cc1	inconclusive: 37.3%
O=C(N/N=C/c1ccncc1)c1ccccc1OCc1ccc(Br)cc1	inconclusive: 36%
O=C(CCCC(=O)c1ccccc1)Nc1ccc(O)cc1	inconclusive: 52.7%
O=C(Nc1ccc(F)cc1)C(Cc1ccccc1)n1cccc1 (stereo unspecified)	inconclusive: 49.4%
CN(c1ccccc1)S(=O)(=O)c1ccc(C(=O)Nc2ccncc2)cc1	inconclusive: 63.8%
COc1cc(/C=C/C(O)=C/C(=O)/C=C/c2ccc(O)cc2)ccc1O	inconclusive: 33%
Cc1ccc(-c2c(C)sc(=NC(=O)c3ccco3)n2C)cc1	inconclusive: 34.6%
Cc1csc(NC(=O)c2cc3ccccc3o2)n1	inconclusive: 47.6%
O=C(Nc1nc(-c2ccccn2)cs1)Nc1ccc(F)cc1F	inconclusive: 52%
CN1/C(=C\C=Nc2cc(S(=O)(=O)N3CCOCC3)ccc2N2CCOCC2)C(C)(C)c2ccccc21	inconclusive: 40.6%
Cc1ccc(C2C=C(c3ccc4c(c3)OCO4)Nc3ncnn32)cc1 (stereo unspecified)	inconclusive: 39.9%

Compound	activation
CC(C)c1ccc(/C=N/n2c(COc3ccccc3)n[nH]c2=S)cc1	inconclusive: 31.8%
O=C(Nc1cccc(F)c1)C1CCCN(C(=O)c2ccc(Cl)cc2)C1 (stereo unspecified)	inconclusive: 43.9%
CC(=O)c1cccc(N2C(=NC(=O)C3CCCCC3)SC3CS(=O)(=O)CC32)c1 (stereo unspecified)	inactive: 6.47%
CC1=C(C(=O)Nc2ccc(CC(=O)NCc3ccc(OC(C)C)cc3)cc2)SCCO1	inconclusive: 37.1%
CSc1nsc(NC(=O)Cc2ccccc2)n1	inactive: 12.7%
CC(C)N1C/C(=C/c2ccsc2)C(=O)/C(=C/c2ccsc2)C1	inactive: 2.08%
Cc1ccc(Cl)cc1N1CCN(C(=O)CSc2nnc3n2C(C)(C)Cc2ccccc2-3)CC1	inactive: 0.0845%
O=C(COC(=O)c1cc(Br)ccc1O)Nc1ccc2c(c1)OCO2	inconclusive: 33.7%
CCOc1ccccc1/C=C/c1onc(C)c1S(=O)(=O)N1CCC(C(=O)NC(C)(C)C)CC1	inconclusive: 60.1%
COCCCNC(=S)N1CCN(C(c2ccccc2)c2ccccc2)CC1	inconclusive: 58.2%
O=C(Nc1ccc2ccccc2c1)c1onc2c1CCCC2	inconclusive: 63.5%
CCN1C(=O)S/C(=C/c2ccc(Sc3nc4ccccc4[nH]3)o2)C1=O	inconclusive: 64.4%
O=C(c1ccccc1)c1ccc(OCC(O)CN2CCN(S(=O)(=O)N3CCCCC3)CC2)cc1 (stereo unspecified)	inactive: 12.1%
Cc1ccccc1-n1ncc2c1CC(C)(C)CC2NC(=O)CCC(F)(F)F (stereo unspecified)	inconclusive: 46.4%
CCC1=NN(C(=O)c2ccccc2O)C(O)(c2ccccc2)C1 (stereo unspecified)	inconclusive: 35.5%
CCOc1ccccc1N1CCN(C(=O)CCCc2nc3ccccc3s2)CC1	inconclusive: 31.6%
C#CCOCCOCCOCCNc1nc(N2CCN(C(=O)[C@H](CCC(=O)O)n3cc(C(N)CO)nn3)CC2)nc(N2CCN(C(=O)[C@H](CCC(=O)O)n3cc(C(N)CO)nn3)CC2)n1 (stereo partly specified)	inactive: -1.05%
CSc1ccc(CN2CCC(CO)(Cc3ccc(Cl)cc3)CC2)cc1	inactive: -0.0708%
O=C(Cn1cc(C(F)(F)F)ccc1=O)N/N=C/c1ccccc1O	inactive: 1.23%
COc1cc(C(=O)OC(C)c2ccc(F)cc2)ccc1OCC(=O)N1CCOCC1 (stereo unspecified)	inconclusive: 42.1%
Cc1ccc(Cl)cc1N1CCN(C(=O)C2CCN(S(C)(=O)=O)CC2)CC1	inconclusive: 41.6%
Cc1ccc(N(Cc2ccc(C(=O)NCCSc3ccccn3)cc2)S(C)(=O)=O)cc1C	inactive: 8.24%
CN1OC(c2ccccc2)=C(CO)C1c1ccccc1 (stereo unspecified)	inactive: -3.41%

Gathered by group, the entries above containing bromine.
Compound	activation
O=C(N/N=C/c1ccncc1)c1ccccc1OCc1ccc(Br)cc1	inconclusive: 36%
O=C(COC(=O)c1cc(Br)ccc1O)Nc1ccc2c(c1)OCO2	inconclusive: 33.7%

(next part)

Compound	activation
COc1cccc(N/C(=N/C(=S)Nc2ccc(C)cc2C)Nc2nc(C)cc(C)n2)c1	inactive: 4.42%
Cc1ccc(C(=O)CCc2ccc(N)cc2)cc1	inconclusive: 32.3%
CC(Cc1cccs1)NC(=O)Nc1ccc(Cl)c(Cl)c1 (stereo unspecified)	inconclusive: 55.1%
O=C(c1cc(-c2ccc(Cl)cc2Cl)on1)N1CCCCCC1	inconclusive: 55.4%
CC(C)=CCC/C(C)=C/C=N/NC(=O)c1cccc([N+](=O)[O-])c1	inactive: 29.2%
C/C(=N\NC(=O)c1cc2ccccc2cc1O)c1cc2ccccc2o1	inactive: 2.23%
Cc1ccc(-c2cc(N)n3nc(-c4ccc(C)cc4)cc3n2)cc1	inactive: -1.57%
Cc1cc(Cl)ccc1NC(=S)NCc1ccc(Cl)cc1	inconclusive: 38%
COc1cccc(C(=O)NCC(=O)NCc2cc(=O)n(C)c(=O)n2C)c1	inactive: -2.53%
CC1CN(c2ccc([N+](=O)[O-])cc2F)CCN1C(=O)c1ccco1 (stereo unspecified)	inconclusive: 36.9%
COc1cccc(/C=C/C(=O)Nc2cccc(C(C)=O)c2)c1OC	active: 90.1%
CCCNC(=O)c1ccc2c(=O)c(O)c(-c3ccc(F)cc3)[nH]c2c1	inactive: 0.854%
Cc1ccccc1OCCSCc1nc2ccccc2[nH]1	inconclusive: 42.4%
O=C(NCCSc1c[nH]c2ccccc12)c1ccc2c(c1)OCO2	inconclusive: 53.8%
Cc1nnc(N2CCCC(C(=O)NCc3cccc(F)c3)C2)c2nn(-c3ccccc3)c(C)c12 (stereo unspecified)	inconclusive: 61.9%
CC1=C/C(=N\NC(=S)NCc2ccccc2)CC1	inactive: 16%
O=C(Nc1ccncc1)C1CCN(S(=O)(=O)c2ccc(Cl)c(C(F)(F)F)c2)CC1	inconclusive: 52.3%
Cc1ccc(N2CC(NC(=O)N3CCN(C(=O)c4ccco4)CC3)CC2=O)cc1 (stereo unspecified)	inactive: -2.61%
O=C(COC(=O)c1ccccc1NCCO)NCCC1=CCCCC1	inactive: 4.16%
CN1CCN(c2cc3c(c4c2[nH]c2ccccc24)C(=O)CC(C)(C)C3)CC1	inconclusive: 45.2%
O=C(CSc1nc2cc(Cl)ccc2s1)NCc1ccc2c(c1)OCO2	inconclusive: 40.1%
O=C(N/N=C\c1ccc(F)cc1)c1ccc(F)cc1	active: 81.9%
COc1ccc(Cc2nnc(NCCO)[nH]c2=O)cc1OC	inactive: 0.245%

Compound	activation
S=C(NCCN1CCOCC1)N/N=C/c1ccccc1	inactive: -1.54%
Oc1ccc(Oc2ccc3c(C(F)(F)F)cc(C(F)(F)F)nc3n2)cc1	inactive: 15.8%
COc1cccc(CCNC(=O)c2ccc(C#N)cc2)c1	inconclusive: 48.7%
CCOc1cccc(C(=O)NC(=S)Nc2ccc(Cl)cc2C(=O)O)c1	inactive: -1.96%
CCOC(=O)N1CCN(C2=Nc3cccc4cccc2c34)CC1	inconclusive: 41.1%
CC(C)(Oc1ccc(Cl)cc1)C(=O)NCC(c1ccco1)N1CCCCC1 (stereo unspecified)	inconclusive: 37.1%
CCOC(=O)C1=C(C)NC(=S)NC1c1cccs1 (stereo unspecified)	inconclusive: 38.7%
CCOC(=O)c1cnc2ccc(OCC)cc2c1N1CCN(c2ccccc2OC)CC1	inconclusive: 40.4%
CC1(C)CC(=O)C2=C(C1)Oc1ncn(Cc3ccco3)c(=N)c1C2c1ccccc1 (stereo unspecified)	inconclusive: 31.6%
CC(=O)Nc1cc(Br)ccc1O	inactive: -1.45%
COc1ccc(/C=C/C(=O)c2ccc(O)cc2)cc1	inconclusive: 40.3%
N#C/C(=C\c1ccccc1)C(=O)N1CCN(c2ccccc2F)CC1	inconclusive: 37.8%
O=C(NCCc1ccc(F)cc1)c1cc(=O)c2ccccc2o1	inconclusive: 49.8%
Cc1ccc(C)c(OCCN2C(=O)NC3(CCc4ccccc4C3)C2=O)c1 (stereo unspecified)	inconclusive: 32.9%
Cc1cnc(NC(=O)COc2cccc3c2OC(C)(C)C3)s1	inconclusive: 37.8%
CCCC(=O)c1ccc(N2CCCCCC2)c(F)c1	inconclusive: 39.6%
COc1cccc(-c2nn(-c3ccccc3)cc2CNC(C)Cn2cncn2)c1 (stereo unspecified)	inconclusive: 38.6%
CCCc1ccc(C(=O)NNC(=O)c2ccc(Cl)cc2)cc1	inconclusive: 51.5%
Cc1nn(-c2ccc(F)cc2F)c2c1-c1nc(N3CCCC3)ncc1CC2	inactive: 6.31%
CC1C/C(=N/NC(=O)c2cccc(F)c2)c2ccc(O)cc2C1 (stereo unspecified)	inactive: -2.49%
CCCCN(CC(=O)Nc1cccc(S(=O)(=O)N2CCCC2)c1)Cc1nc2ccccc2c(=O)[nH]1	inactive: 26.8%
Cc1ccc(OCC(=O)N2CCc3ccccc32)cc1	inconclusive: 58.1%

Some values from the list:
For activation, CCOC(=O)N1CCN(C2=Nc3cccc4cccc2c34)CC1 is listed with inconclusive: 41.1%
For activation, COc1cccc(-c2nn(-c3ccccc3)cc2CNC(C)Cn2cncn2)c1 (stereo unspecified) is listed with inconclusive: 38.6%
For activation, CCOC(=O)C1=C(C)NC(=S)NC1c1cccs1 (stereo unspecified) is listed with inconclusive: 38.7%
